# Source: patent publication US20250271426A1, “REDUCTION OF BITTER TASTE OF ACTIVE PHARMACEUTICAL INGREDIENTS AND RELATED ASSAYS AND SCREENING METHODS” (Firmenich Incorporated, priority 2022, published 2025)
# At least one compound was matched to its structure with a doubt left. Some entries repeat one wording, which the source may state once for all of them.
# Tests used:
# [1] = target: T1, T2R receptor SEQ ID NO: 3 (S3) (Homo sapiens, UniProt Q9NYW0, T156M); test: FLIPR calcium assay, cells with promiscuous G protein transfected with bitter receptor cDNA; assay type: cell-based; conditions: responsive if cellular response of >10% over baseline, Fluo4-AM
# T1 construct: expressed in transfected cells; host or cells: cells expressing a promiscuous G protein (e.g., G16g44)
# T1 sequence (Q9NYW0 1-307 T156M): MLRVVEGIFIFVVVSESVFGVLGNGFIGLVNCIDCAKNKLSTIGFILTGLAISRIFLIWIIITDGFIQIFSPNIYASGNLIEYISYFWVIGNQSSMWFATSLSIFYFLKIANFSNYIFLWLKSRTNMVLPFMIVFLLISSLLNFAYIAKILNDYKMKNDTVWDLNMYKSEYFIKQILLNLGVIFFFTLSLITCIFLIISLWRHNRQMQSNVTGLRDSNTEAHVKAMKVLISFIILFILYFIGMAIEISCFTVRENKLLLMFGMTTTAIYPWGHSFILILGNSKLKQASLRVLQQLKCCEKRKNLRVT
# Description: (§1) Cells expressing a promiscuous G protein (e.g., G16g44) were transfected with vectors encoding 22 functional bitter receptor cDNAs, with one receptor per transfection. The cells were transfected directly in 384-well format high-density plates and incubated for 28 hours. Later, cells were loaded with the Ca-specific dye Fluo4-AM. After an incubation of 60 minutes, excess dye is washed off, and cells are stimulated with respective bitter agonists while simultaneously recording changes in intracellular fluorescence using a FLIPR instrument.
# (§2) The above protocol was carried out using 94 different active pharmaceutical ingredients (APIs) that span a wide range of different APIs having a diversity of chemical structures. A particular T2R receptor was identified as being responsive to a particular API if it triggered a cellular response of >10% over baseline.
# [2] = target: T2, T2R receptor SEQ ID NO: 6 (S6) (Homo sapiens, UniProt P59540); test: as above; assay type: cell-based; conditions: responsive if cellular response of >10% over baseline, Fluo4-AM
# T2 construct: expressed in transfected cells; host or cells: cells expressing a promiscuous G protein (e.g., G16g44)
# T2 sequence (P59540 1-309): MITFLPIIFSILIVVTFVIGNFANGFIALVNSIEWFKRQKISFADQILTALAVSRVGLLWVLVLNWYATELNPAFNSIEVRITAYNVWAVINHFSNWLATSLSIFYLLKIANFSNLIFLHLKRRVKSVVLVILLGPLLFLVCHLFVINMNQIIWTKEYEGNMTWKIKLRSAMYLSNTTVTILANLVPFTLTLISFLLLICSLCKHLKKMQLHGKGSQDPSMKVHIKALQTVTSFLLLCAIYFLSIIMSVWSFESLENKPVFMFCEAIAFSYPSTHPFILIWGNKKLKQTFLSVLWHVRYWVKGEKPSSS
# Description: as §1, §2
compound,measurement,setting,value
CCS(=O)(=O)N1CC(CC#N)(n2cc(-c3ncnc4[nH]ccc34)cn2)C1 [Baricitinib],S3 positive response of T2R receptor to API,[1],+ (a “+” to indicate whether a particular T2R receptor showed a positive response to a particular API)
same,S6 positive response of T2R receptor to API,[2],+ (a “+” to indicate whether a particular T2R receptor showed a positive response to a particular API)
